## Percent effect of library compounds

Protein sequences, listed by entry. Tags and fused reporters are not part of them. Residues count along the entry.
UniProt P9WFT3, whole entry: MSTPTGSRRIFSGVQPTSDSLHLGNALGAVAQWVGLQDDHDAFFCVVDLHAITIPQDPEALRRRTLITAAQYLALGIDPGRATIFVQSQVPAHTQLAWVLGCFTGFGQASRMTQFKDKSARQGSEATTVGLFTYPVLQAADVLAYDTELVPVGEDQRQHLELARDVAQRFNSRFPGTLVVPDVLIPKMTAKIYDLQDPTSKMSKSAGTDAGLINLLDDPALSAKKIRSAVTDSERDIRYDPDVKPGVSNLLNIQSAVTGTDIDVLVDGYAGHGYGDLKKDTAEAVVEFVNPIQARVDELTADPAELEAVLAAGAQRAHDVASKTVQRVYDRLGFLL
UniProt I6X8D2, whole entry: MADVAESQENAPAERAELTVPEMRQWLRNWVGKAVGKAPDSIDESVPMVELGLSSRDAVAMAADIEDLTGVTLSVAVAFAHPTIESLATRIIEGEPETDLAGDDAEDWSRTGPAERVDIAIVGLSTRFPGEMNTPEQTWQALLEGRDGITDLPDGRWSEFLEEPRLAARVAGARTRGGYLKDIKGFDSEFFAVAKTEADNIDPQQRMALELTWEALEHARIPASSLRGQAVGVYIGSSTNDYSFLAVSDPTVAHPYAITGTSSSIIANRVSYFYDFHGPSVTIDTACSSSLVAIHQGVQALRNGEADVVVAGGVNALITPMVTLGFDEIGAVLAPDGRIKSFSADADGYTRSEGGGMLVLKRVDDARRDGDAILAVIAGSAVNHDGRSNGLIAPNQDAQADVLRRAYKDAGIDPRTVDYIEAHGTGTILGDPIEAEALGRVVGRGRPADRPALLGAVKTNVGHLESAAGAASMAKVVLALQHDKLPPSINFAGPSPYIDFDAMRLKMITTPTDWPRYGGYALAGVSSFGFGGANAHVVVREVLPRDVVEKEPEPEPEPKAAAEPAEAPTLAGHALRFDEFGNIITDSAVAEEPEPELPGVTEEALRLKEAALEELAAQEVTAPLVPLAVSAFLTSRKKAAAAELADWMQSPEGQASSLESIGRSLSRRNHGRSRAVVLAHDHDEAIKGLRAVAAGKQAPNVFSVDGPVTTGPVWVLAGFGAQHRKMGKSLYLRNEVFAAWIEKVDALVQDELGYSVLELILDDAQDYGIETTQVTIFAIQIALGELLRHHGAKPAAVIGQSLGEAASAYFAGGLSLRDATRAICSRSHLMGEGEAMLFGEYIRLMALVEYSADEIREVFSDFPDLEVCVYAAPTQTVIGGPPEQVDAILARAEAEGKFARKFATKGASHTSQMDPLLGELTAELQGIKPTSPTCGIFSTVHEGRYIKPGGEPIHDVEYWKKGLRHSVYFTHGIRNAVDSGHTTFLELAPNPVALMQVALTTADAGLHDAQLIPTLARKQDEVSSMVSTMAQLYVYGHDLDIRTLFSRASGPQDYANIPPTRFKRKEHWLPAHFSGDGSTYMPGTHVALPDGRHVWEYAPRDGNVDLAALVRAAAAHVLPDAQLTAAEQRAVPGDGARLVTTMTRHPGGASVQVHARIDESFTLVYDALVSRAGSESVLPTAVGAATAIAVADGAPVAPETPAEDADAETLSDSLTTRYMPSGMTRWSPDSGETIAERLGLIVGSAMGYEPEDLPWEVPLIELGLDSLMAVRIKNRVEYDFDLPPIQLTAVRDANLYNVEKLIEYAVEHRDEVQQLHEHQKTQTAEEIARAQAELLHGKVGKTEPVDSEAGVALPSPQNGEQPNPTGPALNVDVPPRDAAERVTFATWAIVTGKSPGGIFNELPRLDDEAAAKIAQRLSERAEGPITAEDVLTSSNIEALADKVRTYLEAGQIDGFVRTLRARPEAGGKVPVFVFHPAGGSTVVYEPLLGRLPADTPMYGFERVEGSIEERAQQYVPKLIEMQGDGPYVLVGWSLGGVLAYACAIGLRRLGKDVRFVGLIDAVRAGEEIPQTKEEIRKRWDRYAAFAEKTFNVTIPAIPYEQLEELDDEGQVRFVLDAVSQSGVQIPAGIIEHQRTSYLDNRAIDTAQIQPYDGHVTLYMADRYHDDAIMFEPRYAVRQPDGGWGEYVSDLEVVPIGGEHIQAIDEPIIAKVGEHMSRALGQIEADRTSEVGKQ
UniProt Q4DA54, 1-478: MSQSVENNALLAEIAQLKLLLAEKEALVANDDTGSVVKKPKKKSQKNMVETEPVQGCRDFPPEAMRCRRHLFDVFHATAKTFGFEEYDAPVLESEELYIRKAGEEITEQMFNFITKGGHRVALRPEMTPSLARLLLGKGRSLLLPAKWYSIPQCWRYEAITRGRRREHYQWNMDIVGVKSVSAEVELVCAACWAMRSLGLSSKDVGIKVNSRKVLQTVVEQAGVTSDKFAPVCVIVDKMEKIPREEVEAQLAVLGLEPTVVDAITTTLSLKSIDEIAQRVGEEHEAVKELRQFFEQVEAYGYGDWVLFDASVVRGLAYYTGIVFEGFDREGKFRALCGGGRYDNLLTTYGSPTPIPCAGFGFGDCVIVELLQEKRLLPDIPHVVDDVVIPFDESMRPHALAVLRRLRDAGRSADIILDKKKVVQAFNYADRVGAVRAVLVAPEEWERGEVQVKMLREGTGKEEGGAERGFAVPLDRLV

From ChEMBL document CHEMBL3988442, “University of Dundee, Small-Polar-MMV Screening Library” (2021).

MtTrpRS: 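Enzyme assay of tryptophanyl-tRNA synthetase; the read-out is not stated. Target: Tryptophan-tRNA ligase, Mycobacterium tuberculosis (UniProt P9WFT3). Tested at 10 µM. Higher most likely means stronger inhibition; the record gives no direction and few retests gave an IC50. About 65,000 compounds were tested under these conditions; 0.098% (about 64) showed 50% or more at least once.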
Leishmania in macrophages: 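Cell assay of Leishmania donovani living inside macrophages; the read-out is not stated. Compounds at 30 µM. Higher reads as stronger inhibition (inferred: compounds with an IC50 in retests scored well above the rest). About 69,000 compounds were tested under these conditions; 1.5% (about 1,000) showed 50% or more at least once.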
Pks13 thioesterase: 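Polyketide synthase Pks13, Mycobacterium tuberculosis (UniProt I6X8D2). Enzyme assay of the thioesterase domain of polyketide synthase 13; the read-out is not stated. Concentration: 30 µM. Higher reads as stronger inhibition (inferred from which compounds were picked for retests). Size under these conditions: about 67,000 compounds, about 300 of them at 50% or above in at least one test.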
TcHisRS: 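Histidine-tRNA ligase, Trypanosoma cruzi CL Brener (UniProt Q4DA54). Enzyme assay of histidyl-tRNA synthetase; the read-out is not stated. Concentration: 30 µM. Direction is inferred from retests: higher values go with stronger inhibition. Of about 69,000 compounds tested this way, about 31 (0.045%) reached 50% or more in at least one test.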

The filed quantity is “Percent Effect” (%). The record does not define 0% and 100%; most values in the screen are far below 50% and negative numbers occur (in some assays of this library far below -100). This is an unselected part of the compounds tested. A dash means the value is not listed here; it may have been measured.

structure	MtTrpRS	Leishmania in macrophages	Pks13 thioesterase	TcHisRS
O=C(c1ccco1)N1CCc2ncnc(NCc3ccccn3)c2CC1	-3.226	1.327	-28.76	2.597
CC1(C)[C@H](Cc2cc(CO)on2)C[C@@H]1N(CC1CC1)CC1CC1	13.65	-4.885	10.34	-4.478
O=C(NCc1ccccc1CN1CCCC1)Nc1nncs1	-0.9336	-1.119	-4.415	8.621
COc1c(CNCc2ccc(CN(C)C)cc2)c(C(C)C)nn1C	-1.258	10.03	-6.225	4.943
O=C(c1cccc(Cl)c1)N1CC[C@@H](N2CCC(O)CC2)[C@H](O)C1	8.494	-16.13	4.965	4.865
O=C(O)c1cc(S(=O)(=O)Nc2cc(F)cc(F)c2)cc2c1OCCO2	-1.406	25.34	-13.75	3.38
CC(C)(C)CC(=O)NC(C)(C(N)=O)c1cccc(Cl)c1 (centres undefined)	-2.592	-4.96	-2.051	2.97
COC(=O)N1CCCC(NC(=O)NCc2cccc(C)n2)C1 (centres undefined)	4.222	34.56	-7.585	-15.31
CCc1cnc(C)nc1NCCN1CCC(O)CC1	-0.4016	-36.84	13.08	5.941
CC(C)Cc1cc(C(=O)N2CCCN(c3cccnn3)CC2)[nH]n1	1.142	6.885	-21.7	10.13
O=C(CCO)N1C[C@H]2CC[C@@H]1CN(C1Cc3ccccc3C1)C2	12.93	-	-20.14	3.488
CCN(C)S(=O)(=O)N1CCC(C(O)c2ccc(F)cc2)CC1 (centres undefined)	1.067	30.49	1.023	4.762
CC(=O)Nc1cccc2c1ccn2CC(=O)Nc1ncc[nH]1	2.34	12.87	-5.927	3
Cc1nn(C)c2nc(N(Cc3ccccc3)CC3CCCO3)sc12 (centres undefined)	1.027	37.72	-20.12	8.861
CC(C)C[C@@H]1N[C@H](C(=O)NCC2CC2)Cc2c[nH]c3cccc1c23	-1.29	23.46	-13.02	1.087
Cc1cc(CN2CCN(C(=O)NCc3ccc(C)s3)CC2)on1	2.466	-8.257	-3.242	7.493
Cc1noc(C)c1CC(=O)NCC(C(C)C)N1CCOCC1 (centres undefined)	-1.206	13.16	28.11	7.514
CCN1CCOC(CNCc2cccc(OCc3ccccn3)c2)C1 (centres undefined)	-8.14	38.94	-5.303	-0.5814
CCSCCC(C)N(C)C(=O)c1cc(C)on1 (centres undefined)	-0.7435	24.6	-6.1	7.027
Cc1ccccc1C(=O)N1C[C@@H](O)[C@H](N2CCOCC2)C1	-7.388	29.51	11.36	9.091
CCOCc1ccccc1NC(=O)NCC(C)(O)c1cccs1 (centres undefined)	-1.966	0.08435	-7.097	8.287
Cc1nc(N2CCCC2)ncc1-c1cc(O)nc(N2CCOCC2)n1	4.145	8.303	0.8538	5.217
O=C(CSC1=NS(=O)(=O)c2cc(F)ccc2N1)c1ccccc1	-0.1467	17.48	2.206	9.548
O=C(NCCS(=O)(=O)N1CCN(c2ncccn2)CC1)c1ccccc1	-2.055	-6.784	-10.26	1.587
c1ccc(Cc2noc(CN3CCCCC3C3OCCO3)n2)cc1 (centres undefined)	-3.008	-8.764	22.27	12.07
O=C(c1ccsc1)N1CC[C@@H](N2CCOCC2)[C@@H]1Cc1ccccc1	-2.616	13.4	-12.13	7.438
O=C(O)C(F)(F)F.O=C(O)C(F)(F)F.[H][C@@]12COC[C@]1(COc1ccccn1)CN(Cc1ccoc1)C2	-	25.98	-	-
CC(=O)NC1CCN(c2ccnc(C3CCNCC3)c2)CC1	-1.737	-	3.13	5.426
Cc1c(F)cccc1S(=O)(=O)Nc1noc(C(C)C)n1	-2.184	29.31	-14.22	7.772
Cc1nn(C)c(C)c1C(=O)N1CCN(C(=O)CC2CCCCC2)CC1	5.302	-27.95	-16.56	8.235
O=C(c1ccccn1)N1CCCN(Cc2nnc(C3CC3)o2)CC1	-0.4068	6.83	-8.607	0
COc1cccc(CN(Cc2ncc[nH]2)Cc2ccco2)c1.O=C(O)CC(O)(CC(=O)O)C(=O)O	-	16.4	-	-
Cc1nc(O)cc(C2(C)CCCNC2)n1 (centres undefined)	-4.373	-	-7.953	4.52
O=c1c(NCCc2ccc(O)cc2)c(NCc2ccco2)c1=O	2.441	32.14	-19.52	-1.242
CCN1Cc2cc3c(cc2NCCC1=O)OCO3	-	15.32	6.67	11.56
COc1cccc(C2CC(=O)Nc3nc(N4CCCCC4)sc32)c1OC (centres undefined)	-0.4068	-9.677	12.93	74.53
[H][C@@]12CCN(C(=O)CC(C)C)C[C@@]1([H])O[C@@H](c1nccs1)C2	-	-21.54	-	-
[H][C@]12CC[C@](O)(CC1)C(CN1CCOCC1)N2Cc1ccc(F)cc1 (some centres undefined)	-	0.4852	-	-
Cc1ccc([C@@H]2CN(C(=O)c3ccoc3C)C[C@H]2NC(=O)C2CC2)cc1	16.52	-10.28	14.31	-3.061
Cc1ccc(CC(=O)N(CC2CN(C)CCO2)c2nccs2)cn1 (centres undefined)	4.856	22.75	-27.2	2.326
CN1CCC2(Cc3ccccc3NC2=O)C1 (centres undefined)	-4.869	24.89	-24.71	5.747
COCCN1C(=O)CC[C@]12CC[C@@H](NC(=O)c1cnccn1)CC2	-4.797	-2.675	-10.95	-87.38
CCc1nnc2n1CCN(Cc1nnc(-c3occc3C)o1)C2	-1.967	19.5	4.2	6.215
COc1ccc(F)cc1C(C)NC(=O)c1nnc(C)s1 (centres undefined)	-1.006	-14.5	-9.175	0.8475
CN(CCN1CCCC1=O)CC(c1cccs1)N1CCOCC1 (centres undefined)	2.437	14.44	-24.18	0
O=C(NC[C@H]1OC[C@@H](NC2CCOCC2)[C@@H]1O)c1cccs1	-3.238	7.343	-38.84	10.89
CN1CCO[C@@H]2CN(S(=O)(=O)c3ccccc3)CC[C@@H]2C1	1.199	-	-15.72	4.813
Cc1cc(NC(=O)NCc2ccc(S(=O)(=O)N3CCCC3)s2)no1	2.103	26.27	-31.76	3.448
CN(Cc1cncnc1)[C@@H]1CN(C(=O)C2CC2)[C@@H]2CCCO[C@H]12	-	-	-10.07	8.466
Cc1ccnc2c1NC(=O)CN2C(=O)CCC(F)(F)F	5.501	9.295	-9.024	4.762
c1ccc(CCn2cc(-c3nc(CN4CCOCC4)no3)nn2)cc1	-5.131	21.83	-3.517	3.665
c1ccc(CN2C[C@H]3CC[C@@H]2CN(Cc2nnc(C4CC4)o2)C3)cc1	0.4442	-	-13.95	7.514
CCn1ccc(NS(=O)(=O)c2cccc(CSC)c2)n1	2.724	-6.706	-48.52	1.754
CNS(=O)(=O)CCCN1CCCCCC1c1ccc(C)o1 (centres undefined)	2.709	29.63	0.4914	-1.961
CCOc1cccc(C(=O)N(CCC#N)Cc2ccccn2)c1	2.679	-0.9758	-14.78	6.667
CCn1cnnc1CNC(=O)N1CCN(c2ccccc2OC)CC1	-3.408	15.35	-15.29	6.322
COc1ncccc1CNC(=O)Nc1cccnc1N1CCCC1	12.29	2.528	-2.055	7.849
CCn1cnnc1CNC(=O)N1CCN(CC(C)C)CC1	-5.643	12.8	-7.16	6.706
Cc1nnc(NC(=O)CN2CCCC(Cn3cncn3)C2)s1 (centres undefined)	0.7601	18.87	-1.217	-0.3774
CCCc1noc(-c2cn(CC(=O)N(CC)CC)nn2)n1	-0.122	27.31	-11.74	5.579
CN(C)C(=O)CN1CCCC(c2nccnc2-c2cccc(Cl)c2)C1 (centres undefined)	6.332	26.75	1.119	0.565
Cc1noc(C)c1CNC(=O)C1(NS(C)(=O)=O)CCCCC1	1.12	-1.451	3.399	9.412
CCS(=O)(=O)NCCCNC1CSCCc2ccccc21 (centres undefined)	-7.301	16.82	-21.02	1.299
c1ccc(-c2nc(CN3CCn4c(nnc4C4CC4)C3)co2)cc1	-2.563	35.29	-17.61	5.65
Cc1nn(Cc2ccc(C(=O)NCCCN3CCOCC3)o2)c(C)c1Cl	2.913	-12.01	37.05	10.89
CCN(Cc1cccs1)S(=O)(=O)N(C)C(C)C	3.974	3.636	-8.606	0.6024
Cc1cnc(C)c(N2CCCC(C/C=C/c3ccccc3)(C(=O)O)C2)n1 (centres undefined)	1.484	12.4	-1.582	10.13

Repeated from the top, 4 entries:

{"structure": "O=C(c1ccco1)N1CCc2ncnc(NCc3ccccn3)c2CC1", "MtTrpRS": -3.226, "Leishmania in macrophages": 1.327, "Pks13 thioesterase": -28.76, "TcHisRS": 2.597}
{"structure": "CC1(C)[C@H](Cc2cc(CO)on2)C[C@@H]1N(CC1CC1)CC1CC1", "MtTrpRS": 13.65, "Leishmania in macrophages": -4.885, "Pks13 thioesterase": 10.34, "TcHisRS": -4.478}
{"structure": "O=C(NCc1ccccc1CN1CCCC1)Nc1nncs1", "MtTrpRS": -0.9336, "Leishmania in macrophages": -1.119, "Pks13 thioesterase": -4.415, "TcHisRS": 8.621}
{"structure": "COc1c(CNCc2ccc(CN(C)C)cc2)c(C(C)C)nn1C", "MtTrpRS": -1.258, "Leishmania in macrophages": 10.03, "Pks13 thioesterase": -6.225, "TcHisRS": 4.943}